The supplement of paper PMC9549374
The list shows a part of the results. Cut-off read from the data, not from the text of the source: active = 2-fold of DMSO or more and inactive = the rest. Single values of this set are uncertain. Some low values are a fixed figure set by the source, not a measured ratio.

Each compound was assayed on CM7/1-hgem mouse ES cell-derived cardiomyocytes (assay: maximal number of mAG-hGem(1/110)-positive cardiomyocytes over 96 h, fold-change vs DMSO; higher = more cardiomyocyte cell cycle activity). Settings: 1 µM; 96 (max over 12 h time points) h.

Structure (SMILES) | maximal number
CNNCc1ccc(C(=O)NC(C)C)cc1 | inactive: 1
COc1c(O)cc2oc3cc(O)c(CC=C(C)C)c(O)c3c(=O)c2c1CC=C(C)C [alpha-MANGOSTIN] | inactive: 1
CC(CCC(=O)O)[C@H]1CCC2C3C[C@H](O)[C@@H]4C[C@H](O)CC[C@]4(C)C3CC[C@@]21C (stereo partly drawn) [alpha-HYDROXYDEOXYCHOLIC ACID] | inactive: 0
COC(=O)[C@@H]1OC(=O)C2OC23[C@@]1(C)CCC1[C@@]2(C)CCC(=O)C(C)(C)C2C[C@@H](OC(C)=O)[C@]13C (stereo partly drawn) | inactive: 1
O=c1oc2c(O)c(O)cc3c(=O)oc4c(O)c(O)cc1c4c23 | inactive: 1
N=C(N)c1ccc(N=NNc2ccc(C(=N)N)cc2)cc1 | inactive: 1
COc1ccc2c(c1)OCc1c-2oc2cc(OC)ccc12 | inactive: 1
COc1cc(/C=C/C(=O)O)cc(OC)c1OC | inactive: 1
Nc1nc(Cl)nc2c1ncn2[C@@H]1O[C@H](CO)[C@@H](O)[C@@H]1F | inactive: 0
Fc1ccc([C@@H]2CCNC[C@H]2COc2ccc3c(c2)OCO3)cc1 | inactive: 0
O=C1C=C2CC3(O)COc4c(ccc(O)c4O)C3=C2C=C1O (stereo not drawn) | inactive: 1
CC(=O)/C(=C\c1ccccc1)CC(=O)O | inactive: 1
COC(=O)CC[C@@H](C)[C@H]1CC[C@H]2[C@@H]3[C@H](O)C[C@@H]4C[C@H](O)CC[C@]4(C)[C@H]3C[C@H](O)[C@]12C | inactive: 1
CC[C@H](/C=C/[C@@H](C)[C@H]1CC[C@H]2[C@@H]3CCC4=CC(=O)CC[C@]4(C)[C@H]3CC[C@]12C)C(C)C | inactive: 1
COC1=CC(=O)C(O)=C/C1=C\C=C\c1ccccc1 | inactive: 0.5
NCc1ccccc1CC(=O)N[C@@H]1C(=O)N2C(C(=O)O)=C(CSc3nnnn3CC(=O)O)CS[C@H]12 | inactive: 1
CC(=O)O[C@@H]1CC[C@@]2(C)C(C[C@@H](OC(C)=O)[C@@]3(C)C4=CC(=O)O[C@@H](c5ccoc5)[C@]4(C)CCC23)C1(C)C (stereo partly drawn) [3alpha-ACETOXYDIHYDRODEOXYGEDUNIN] | inactive: 1
CC(=O)O[C@@H]1C[C@H]2C(C)(C)C(=O)CC[C@]2(C)[C@H]2CC[C@@]3(C)[C@H](c4ccoc4)OC(=O)[C@H]4O[C@]43[C@@]21C | inactive: 1
O=C(Cc1ccccc1)NO | inactive: 1

Structure (SMILES) | maximal number
Cc1c(C(=O)O)c(O)cc2c1C(=O)c1c(O)c([C@@H]3O[C@H](CO)[C@@H](O)[C@H](O)[C@H]3O)c(O)c(O)c1C2=O | inactive: 1
COc1ccc2c(c1)OC[C@@H](Cc1ccc(OC)c(OC)c1)[C@@H]2O | inactive: 1
CNC(=N)NCCC[C@H](N)C(=O)O | inactive: 1
COc1ccc2[nH]c([S@@+]([O-])Cc3ncc(C)c(OC)c3C)nc2c1 | inactive: 1
NC1(C(=O)O)CCCC1 | inactive: 0
COc1cc(O)c(C(C)=O)c(O)c1 | inactive: 1
Cc1ccc2c(Cl)cc(Cl)c(O)c2n1 | inactive: 1
COc1ccc2cc3[n+](cc2c1OC)CCc1cc2c(cc1-3)OCO2 | inactive: 1
NC(Cn1ccc(=O)c(O)c1)C(=O)O (stereo not drawn) | inactive: 1
Cc1ccc(C(C)C)cc2c(C)ccc1-2 | inactive: 1
CC(=O)N[C@@H](CCC(N)=O)C(=O)O | inactive: 1
CC(C(=O)O)c1ccc(CC2CCCC2=O)cc1 (stereo not drawn) | inactive: 1
CC(Oc1c(Cl)cccc1Cl)C1=NCCN1 (stereo not drawn) | inactive: 1
C[C@@H](c1ncncc1F)[C@](O)(Cn1cncn1)c1ccc(F)cc1F | inactive: 1
O=C(CCCCCCC(=O)Nc1ccccc1)NO | inactive: 1
O=c1cc(-c2ccccc2)oc2cc(O)c(O)c(O)c12 | inactive: 1
C/C1=C2/[N-][C@H]([C@H](CC(N)=O)[C@@]2(C)CCC(=O)NC[C@@H](C)OP(=O)([O-])O[C@H]2[C@@H](O)[C@@H](n3cnc4cc(C)c(C)cc43)O[C@@H]2CO)[C@]2(C)N=C(/C(C)=C3N=C(/C=C4N=C1[C@@H](CCC(N)=O)C\4(C)C)[C@@H](CCC(N)=O)[C@]\3(C)CC(N)=O)[C@@H](CCC(N)=O)[C@]2(C)CC(N)=O.[CH2-][C@H]1O[C@H](n2cnc3c(N)ncnc32)[C@@H](O)[C@H]1O.[Co+3] | inactive: 1
C[C@H]1[C@H]2CC[C@H]3[C@@H]4CC=C5C[C@@H](N(C)C)CC[C@]5(C)[C@H]4CC[C@]23CN1C | inactive: 1
COC(=O)[C@@]1(C)CCC[C@]2(C)c3ccc(O)c(C(C)C)c3CCC12 (stereo partly drawn) | inactive: 1

Taken from above (2 entries):
Structure (SMILES) | maximal number
CC(Oc1c(Cl)cccc1Cl)C1=NCCN1 (stereo not drawn) | inactive: 1
C[C@@H](c1ncncc1F)[C@](O)(Cn1cncn1)c1ccc(F)cc1F | inactive: 1
